Results from paper PMC3832446.
These are yes or no findings as the source states them, for the method shown. Binding seen in cells or lysates may run through a third protein. Some results given as binding are weak or reduced against the parent protein; the word gives no strength. Where a sequence is shown, tags or fusion partners need not be part of it.

Biological target: T1, Flag-tagged retinoic acid-inducible gene I (RIG-I) (UniProt O95786)
T1 sequence: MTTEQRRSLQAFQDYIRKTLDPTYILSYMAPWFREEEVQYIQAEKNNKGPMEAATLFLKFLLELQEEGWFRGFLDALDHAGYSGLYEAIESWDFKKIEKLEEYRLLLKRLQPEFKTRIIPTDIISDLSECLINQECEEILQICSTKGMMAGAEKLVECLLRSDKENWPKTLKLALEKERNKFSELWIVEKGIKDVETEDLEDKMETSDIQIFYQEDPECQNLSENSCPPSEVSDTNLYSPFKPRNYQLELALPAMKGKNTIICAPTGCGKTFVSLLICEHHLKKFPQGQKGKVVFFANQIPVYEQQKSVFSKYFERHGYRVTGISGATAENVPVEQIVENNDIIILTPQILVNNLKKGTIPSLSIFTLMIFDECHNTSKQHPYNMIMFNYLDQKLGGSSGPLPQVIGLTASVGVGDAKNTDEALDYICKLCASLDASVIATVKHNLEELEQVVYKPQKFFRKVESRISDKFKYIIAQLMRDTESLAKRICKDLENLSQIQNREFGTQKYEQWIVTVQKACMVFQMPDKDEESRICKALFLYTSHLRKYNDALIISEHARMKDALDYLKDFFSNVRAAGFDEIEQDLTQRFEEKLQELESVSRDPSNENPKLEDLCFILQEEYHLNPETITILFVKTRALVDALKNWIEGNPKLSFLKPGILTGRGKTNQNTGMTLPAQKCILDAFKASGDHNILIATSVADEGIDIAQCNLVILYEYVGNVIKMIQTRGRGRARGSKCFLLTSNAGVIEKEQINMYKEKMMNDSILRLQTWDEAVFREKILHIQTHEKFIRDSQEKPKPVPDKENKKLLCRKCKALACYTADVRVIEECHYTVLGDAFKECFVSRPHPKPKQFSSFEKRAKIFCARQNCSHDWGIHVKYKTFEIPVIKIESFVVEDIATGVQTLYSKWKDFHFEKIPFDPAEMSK
Assay: co-IP; HEK-293T cells in 100-mm dishes co-transfected with RIG-I or TRAF6 vector (4 ug) and HA-USP25 (4 ug); lysis in 50 mM Tris-HCl pH 7.4, 150 mM NaCl, 1% NP40, 10% glycerin, 0.1% SDS, 2 mM Na2EDTA; antibodies and protein A+G agarose at 4 C; immunoblots with anti-HA and anti-Flag

binding: binds
Substance: HA-tagged ubiquitin-specific protease 25 (USP25), wild type (from UniProt Q9UHP3-2 1-1055) (enzyme)
